Results: patent US20220242905A1 (UNIVERSITE DE MONTPELLIER, priority 2018, published 2022)
Strings that start with PEPTIDE1 are HELM notation: dots part the residues, brackets hold end groups and non-standard residues.

Key:
[1] = general procedure: Fmoc solid-phase peptide synthesis; ChemMatrix Rink Amide resin; DIC/Oxyma Pure; conditions: whole synthesis, scale 0.15 mmol
[2] = general procedure: Fmoc solid-phase peptide synthesis; ChemMatrix Rink Amide resin loaded at 0.49 mmol/g; DIC/Oxyma Pure; conditions: whole synthesis, scale 0.7 mmol

Row | Substance | isolated mass [1] [mg] | isolated yield [1] [%] | isolated mass [2] [mg] | isolated yield [2] [%]
1 | PEPTIDE1{[ac].[ATC-Lys-Me].[ATC-Ala-Me].[ATC-Ala-C4N].[ATC-Ala-Me].[ATC-Ala-C4N].[ATC-Lys-Me].[ATC-Ala-C4N].[ATC-Lys-Me].[ATC-Ala-Me].[ATC-Ala-Me].[ATC-Ala-C4N].[ATC-Lys-Me].[am]}$$$$V2.0 | 92 | 18 |  | 
2 | PEPTIDE1{[ac].[ATC-Lys-Me].[ATC-Ala-C4N].[ATC-Ala-Me].[ATC-Lys-Me].[ATC-Ala-C4N].[ATC-Ala-Me].[am]}$$$$V2.0 |  |  | 45 | 12
